Measurements published in patent US10376520B2, “Methods for the treatment of cardiovascular disorders” (Galapagos NV, priority 2015, dated 2019).
This continues a long series; more values of the same kind are listed elsewhere.

Test system: RA patients
Assay: LDL determination, Study 1 (RA patients, add-on to MTX)
Assay type: in vivo, human
Conditions: Study 1 24 weeks results
Experimental: Double-blind, placebo-controlled add on study in subjects with moderately to severely active RA who have an inadequate response to methotrexate (MTX) (oral or parenteral).
595 subjects randomized to one of 6 dose regimens of Compound 1 (dosed as a [Compound 1:HCl:3H2O]) (3 dose levels administered either once or twice daily) or placebo on top of each subject's stable dose of MTX.
Compound 1 (dosed as a [Compound 1:HCl:3H2O]) is dosed for twelve weeks once daily (q.d.) (50 mg, 100 mg or 200 mg) or twice daily (b.i.d.) (25 mg, 50 mg or 100 mg); or placebo.
At Week 12, the subjects on placebo who have not achieved 20% improvement in swollen joint count (SJC66) and tender joint count (TJC68) are re-randomized automatically to receive Compound 1 (dosed as a [Compound 1:HCl:3H2O]) either at 100 mg q.d. or 50 mg b.i.d. doses in a blinded fashion; subjects on 50 mg q.d. who have not achieved 20% improvement in SJC66 and TJC68 will be assigned to 100 mg q.d. and subjects on 25 mg b.i.d. that have not achieved a 20% improvement in SJC66 and TJC68 will be assigned to 50 mg b.i.d. Subjects who switch treatment at week 12 are handled as if they discontinued at week 12 for the purpose of statistical analysis, whereas subjects in the other groups will maintain their randomized treatment until Week 24.
The determination of [LDL]-cholesterol is made using an automated method taking advantage of the selective micellary solubilization of [LDL]-cholesterol by a nonionic detergent and the interaction of a sugar compound and lipoproteins (VLDL and chylomicrons).
When a detergent is included in the enzymatic method for cholesterol determination (cholesterol esterase, cholesterol oxidase coupling reaction), the relative reactivities of cholesterol in the lipoprotein fractions increase in this order: [HDL]<chylomicrons <VLDL <[LDL]. In the presence of Mg^2+, a sugar compound markedly reduces the enzymatic reaction of the cholesterol measurement in VLDL and chylomicrons. The combination of a sugar compound with detergent enables the selective determination of [LDL]-cholesterol in serum. (Friedewald et al., 1972; Rifai et al., 1992)
Homogeneous enzymatic colorimetric assay.
In the presence of peroxidase, the hydrogen peroxide generated reacts with 4-aminoantipyrine and Sodium N-(2-hydroxy-3-sulfopropyl)-3,5-dimethoxyaniline (HSDA) to form a purple-blue dye.
The color intensity of this dye is directly proportional to the cholesterol concentration and is measured photometrically.
Human serum and plasma samples [LDL] determination was done on a Roche/Hitachi Cobas c 701/702 system which automatically calculate the analyte concentration of each sample. Samples containing precipitates are centrifuged before performing the assay.

[1] = continued 50 mg b.i.d., week 12
[2] = continued 50 mg b.i.d., week 16
[3] = continued 50 mg b.i.d., week 20
[4] = continued 50 mg b.i.d., week 24
[5] = continued 100 mg b.i.d., week 1
[6] = continued 100 mg b.i.d., week 2
[7] = continued 100 mg b.i.d., week 4
[8] = continued 100 mg b.i.d., week 8
[9] = continued 100 mg b.i.d., week 12
[10] = continued 100 mg b.i.d., week 16
[11] = continued 100 mg b.i.d., week 20
[12] = continued 100 mg b.i.d., week 24
[13] = increased from 25 mg b.i.d. to 50 mg b.i.d at 12 weeks, week 1
[14] = increased from 25 mg b.i.d. to 50 mg b.i.d at 12 weeks, week 2
[15] = increased from 25 mg b.i.d. to 50 mg b.i.d at 12 weeks, week 4
[16] = increased from 25 mg b.i.d. to 50 mg b.i.d at 12 weeks, week 8
[17] = increased from 25 mg b.i.d. to 50 mg b.i.d at 12 weeks, week 12
[18] = increased from 25 mg b.i.d. to 50 mg b.i.d at 12 weeks, week 16
[19] = increased from 25 mg b.i.d. to 50 mg b.i.d at 12 weeks, week 20
[20] = increased from 25 mg b.i.d. to 50 mg b.i.d at 12 weeks, week 24
[21] = increased from 50 mg q.d. to 100 mg q.d. at 12 weeks, week 1
[22] = increased from 50 mg q.d. to 100 mg q.d. at 12 weeks, week 2
[23] = increased from 50 mg q.d. to 100 mg q.d. at 12 weeks, week 4
[24] = increased from 50 mg q.d. to 100 mg q.d. at 12 weeks, week 8
[25] = increased from 50 mg q.d. to 100 mg q.d. at 12 weeks, week 12
[26] = increased from 50 mg q.d. to 100 mg q.d. at 12 weeks, week 16
[27] = increased from 50 mg q.d. to 100 mg q.d. at 12 weeks, week 20
[28] = increased from 50 mg q.d. to 100 mg q.d. at 12 weeks, week 24
[29] = placebo switched to 100 mg q.d. at week 12, week 16
[30] = placebo switched to 100 mg q.d. at week 12, week 20
[31] = placebo switched to 100 mg q.d. at week 12, week 24

Question: What does the source list for `O=C(Nc1nc2cccc(-c3ccc(CN4CCS(=O)(=O)CC4)cc3)n2n1)C1CC1` [Compound 1, cyclopropanecarboxylic acid {5-[4-(1,1-dioxo-thiomorpholin-4-ylmethyl)-phenyl]-[1,2,4]triazolo[1,5-a]pyridin-2yl}-amide]?
Answer: [LDL] Mean CFB (continued 25 mg b.i.d, week 1): 0.06 mmol/L; [LDL] Median CFB (continued 25 mg b.i.d, week 1): 0.08 mmol/L; [LDL] Mean CFB (continued 25 mg b.i.d, week 2): 0.06 mmol/L; [LDL] Median CFB (continued 25 mg b.i.d, week 2): 0.09 mmol/L; [LDL] Mean CFB (continued 25 mg b.i.d, week 4): 0.05 mmol/L; [LDL] Median CFB (continued 25 mg b.i.d, week 4): 0.03 mmol/L; [LDL] Mean CFB (continued 25 mg b.i.d, week 8): 0.05 mmol/L; [LDL] Median CFB (continued 25 mg b.i.d, week 8): 0.06 mmol/L; [LDL] Mean CFB (continued 25 mg b.i.d, week 12): 0.14 mmol/L; [LDL] Median CFB (continued 25 mg b.i.d, week 12): 0.13 mmol/L; [LDL] Mean CFB (continued 25 mg b.i.d, week 16): 0.10 mmol/L; [LDL] Median CFB (continued 25 mg b.i.d, week 16): 0.06 mmol/L; [LDL] Mean CFB (continued 25 mg b.i.d, week 20): 0.14 mmol/L; [LDL] Median CFB (continued 25 mg b.i.d, week 20): 0.14 mmol/L; [LDL] Mean CFB (continued 25 mg b.i.d, week 24): 0.14 mmol/L; [LDL] Median CFB (continued 25 mg b.i.d, week 24): 0.13 mmol/L; [LDL] Mean CFB (continued 50 mg b.i.d., week 1): 0.10 mmol/L; [LDL] Median CFB (continued 50 mg b.i.d., week 1): 0.17 mmol/L; [LDL] Mean CFB (continued 50 mg b.i.d., week 2): 0.04 mmol/L; [LDL] Median CFB (continued 50 mg b.i.d., week 2): 0.10 mmol/L; [LDL] Mean CFB (continued 50 mg b.i.d., week 4): 0.14 mmol/L; [LDL] Median CFB (continued 50 mg b.i.d., week 4): 0.04 mmol/L; [LDL] Mean CFB (continued 50 mg b.i.d., week 8): 0.07 mmol/L; [LDL] Median CFB (continued 50 mg b.i.d., week 8): 0.10 mmol/L; [LDL] Mean CFB [1]: 0.05 mmol/L; [LDL] Median CFB [1]: -0.02 mmol/L; [LDL] Mean CFB [2]: 0.10 mmol/L; [LDL] Median CFB [2]: 0.09 mmol/L; [LDL] Mean CFB [3]: 0.14 mmol/L; [LDL] Median CFB [3]: 0.17 mmol/L; [LDL] Mean CFB [4]: 0.19 mmol/L; [LDL] Median CFB [4]: 0.21 mmol/L; [LDL] Mean CFB [5]: 0.20 mmol/L; [LDL] Median CFB [5]: 0.18 mmol/L; [LDL] Mean CFB [6]: 0.15 mmol/L; [LDL] Median CFB [6]: 0.08 mmol/L; [LDL] Mean CFB [7]: 0.17 mmol/L; [LDL] Median CFB [7]: 0.12 mmol/L; [LDL] Mean CFB [8]: 0.31 mmol/L; [LDL] Median CFB [8]: 0.22 mmol/L; [LDL] Mean CFB [9]: 0.27 mmol/L; [LDL] Median CFB [9]: 0.26 mmol/L; [LDL] Mean CFB [10]: 0.21 mmol/L; [LDL] Median CFB [10]: 0.21 mmol/L; [LDL] Mean CFB [11]: 0.16 mmol/L; [LDL] Median CFB [11]: 0.11 mmol/L; [LDL] Mean CFB [12]: 0.30 mmol/L; [LDL] Median CFB [12]: 0.24 mmol/L; [LDL] Mean CFB (continued 200 mg q.d., week 1): 0.15 mmol/L; [LDL] Median CFB (continued 200 mg q.d., week 1): 0.16 mmol/L; [LDL] Mean CFB (continued 200 mg q.d., week 2): 0.11 mmol/L; [LDL] Median CFB (continued 200 mg q.d., week 2): 0.13 mmol/L; [LDL] Mean CFB (continued 200 mg q.d., week 4): 0.13 mmol/L; [LDL] Median CFB (continued 200 mg q.d., week 4): 0.09 mmol/L; [LDL] Mean CFB (continued 200 mg q.d., week 8): 0.16 mmol/L; [LDL] Median CFB (continued 200 mg q.d., week 8): 0.18 mmol/L; [LDL] Mean CFB (continued 200 mg q.d., week 12): 0.19 mmol/L; [LDL] Median CFB (continued 200 mg q.d., week 12): 0.14 mmol/L; [LDL] Mean CFB (continued 200 mg q.d., week 16): 0.14 mmol/L; [LDL] Median CFB (continued 200 mg q.d., week 16): 0.07 mmol/L; [LDL] Mean CFB (continued 200 mg q.d., week 20): 0.17 mmol/L; [LDL] Median CFB (continued 200 mg q.d., week 20): 0.14 mmol/L; [LDL] Mean CFB [13]: -0.07 mmol/L; [LDL] Median CFB [13]: -0.02 mmol/L; [LDL] Mean CFB [14]: -0.05 mmol/L; [LDL] Median CFB [14]: -0.05 mmol/L; [LDL] Mean CFB [15]: -0.25 mmol/L; [LDL] Median CFB [15]: -0.27 mmol/L; [LDL] Mean CFB [16]: -0.42 mmol/L; [LDL] Median CFB [16]: -0.40 mmol/L; [LDL] Mean CFB [17]: -0.17 mmol/L; [LDL] Median CFB [17]: -0.15 mmol/L; [LDL] Mean CFB [18]: -0.13 mmol/L; [LDL] Median CFB [18]: -0.16 mmol/L; [LDL] Mean CFB [19]: -0.48 mmol/L; [LDL] Median CFB [19]: -0.26 mmol/L; [LDL] Mean CFB [20]: -0.25 mmol/L; [LDL] Median CFB [20]: -0.17 mmol/L; [LDL] Mean CFB [21]: -0.02 mmol/L; [LDL] Median CFB [21]: -0.02 mmol/L; [LDL] Mean CFB [22]: 0.15 mmol/L; [LDL] Median CFB [22]: -0.04 mmol/L; [LDL] Mean CFB [23]: -0.03 mmol/L; [LDL] Median CFB [23]: -0.01 mmol/L; [LDL] Mean CFB [24]: 0.02 mmol/L; [LDL] Median CFB [24]: -0.07 mmol/L; [LDL] Mean CFB [25]: 0.06 mmol/L; [LDL] Median CFB [25]: 0.10 mmol/L; [LDL] Mean CFB [26]: 0.12 mmol/L; [LDL] Median CFB [26]: 0.24 mmol/L; [LDL] Mean CFB [27]: 0.10 mmol/L; [LDL] Median CFB [27]: 0.15 mmol/L; [LDL] Mean CFB [28]: 0.14 mmol/L; [LDL] Median CFB [28]: 0.20 mmol/L; [LDL] Mean CFB [29]: -0.09 mmol/L; [LDL] Median CFB [29]: -0.14 mmol/L; [LDL] Mean CFB [30]: -0.05 mmol/L; [LDL] Median CFB [30]: 0.05 mmol/L; [LDL] Mean CFB [31]: -0.24 mmol/L; [LDL] Median CFB [31]: -0.14 mmol/L
